Measurements reported in PubChem BioAssay AID1259254 (NCATS, 2017)

Purpose: 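Gene knock-downs that lead to re-replication, shown by excess G2 DNA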 (primary screen)
Cell system: human HCT116 colorectal cancer cells
Reagents: single siRNA against human genes
Time to read-out: 3 days
Measured: 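Nuclei stained with Hoechst and imaged; cell-cycle phase assigned by DNA content; G2 share scaled per plate, non-targeting siRNA 0%, GMNN siRNA 100%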
Reading the numbers: G2 robust z-score and G2 cells, % of GMNN control: higher = more G2 cells, more excess DNA replication
Hit rule: 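An siRNA counts as active if its G2 robust z-score lies at least 5 MADs above the screen median; here such calls match roughly 38% of GMNN control or more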
Shown is a random part of about 59,000 reagents tested. About 1,550 of all reagents (2.6%) count as active. 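G2 share is only a proxy for re-replication; each gene was hit by three separate siRNAs, and active genes were retested.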 The numbers tell different reagents against one gene apart. Further read-outs or replicates are left out here. The record does not give: the amount of reagent.

COQ3 (GeneID 51805) #1 — G2 robust z-score = 0.446; G2 cells, % of GMNN control = 6.1; outcome = inactive
COQ3 (GeneID 51805) #2 — G2 robust z-score = -0.159; G2 cells, % of GMNN control = 1.85; outcome = inactive
COQ3 (GeneID 51805) #3 — G2 robust z-score = -0.833; G2 cells, % of GMNN control = -2.89; outcome = inactive
ERI2 (GeneID 112479) #1 — G2 robust z-score = 0.267; G2 cells, % of GMNN control = 4.85; outcome = inactive
ERI2 (GeneID 112479) #2 — G2 robust z-score = 0.292; G2 cells, % of GMNN control = 5.02; outcome = inactive
ERI2 (GeneID 112479) #3 — G2 robust z-score = -0.203; G2 cells, % of GMNN control = 1.54; outcome = inactive
TMEM240 (GeneID 339453) #1 — G2 robust z-score = 1.57; G2 cells, % of GMNN control = 14; outcome = inactive
TMEM240 (GeneID 339453) #2 — G2 robust z-score = 1.06; G2 cells, % of GMNN control = 10.5; outcome = inactive
TMEM240 (GeneID 339453) #3 — G2 robust z-score = 0.722; G2 cells, % of GMNN control = 8.05; outcome = inactive
RSPH6A (GeneID 81492) #1 — G2 robust z-score = 1.09; G2 cells, % of GMNN control = 10.6; outcome = inactive
RSPH6A (GeneID 81492) #2 — G2 robust z-score = -0.0878; G2 cells, % of GMNN control = 2.35; outcome = inactive
RSPH6A (GeneID 81492) #3 — G2 robust z-score = 0.444; G2 cells, % of GMNN control = 6.09; outcome = inactive
TPI1 (GeneID 7167) #1 — G2 robust z-score = 1.14; G2 cells, % of GMNN control = 11; outcome = inactive
TPI1 (GeneID 7167) #2 — G2 robust z-score = 0.889; G2 cells, % of GMNN control = 9.22; outcome = inactive
TPI1 (GeneID 7167) #3 — G2 robust z-score = 5.07; G2 cells, % of GMNN control = 38.6; outcome = active
MZB1 (GeneID 51237) #1 — G2 robust z-score = 1.51; G2 cells, % of GMNN control = 13.6; outcome = inactive
MZB1 (GeneID 51237) #2 — G2 robust z-score = -0.995; G2 cells, % of GMNN control = -4.03; outcome = inactive
MZB1 (GeneID 51237) #3 — G2 robust z-score = -1.52; G2 cells, % of GMNN control = -7.74; outcome = inactive
P4HA3 (GeneID 283208) #1 — G2 robust z-score = -1.23; G2 cells, % of GMNN control = -5.66; outcome = inactive
P4HA3 (GeneID 283208) #2 — G2 robust z-score = -0.495; G2 cells, % of GMNN control = -0.515; outcome = inactive
P4HA3 (GeneID 283208) #3 — G2 robust z-score = -0.039; G2 cells, % of GMNN control = 2.69; outcome = inactive
NLE1 (GeneID 54475) #1 — G2 robust z-score = -0.707; G2 cells, % of GMNN control = -2.01; outcome = inactive
NLE1 (GeneID 54475) #2 — G2 robust z-score = -0.32; G2 cells, % of GMNN control = 0.716; outcome = inactive
NLE1 (GeneID 54475) #3 — G2 robust z-score = 1.1; G2 cells, % of GMNN control = 10.7; outcome = inactive
ADRM1 (GeneID 11047) #1 — G2 robust z-score = 3.03; G2 cells, % of GMNN control = 24.3; outcome = inactive
ADRM1 (GeneID 11047) #2 — G2 robust z-score = -0.17; G2 cells, % of GMNN control = 1.77; outcome = inactive
ADRM1 (GeneID 11047) #3 — G2 robust z-score = -0.215; G2 cells, % of GMNN control = 1.45; outcome = inactive
WDR82 (GeneID 80335) #1 — G2 robust z-score = 0.36; G2 cells, % of GMNN control = 5.5; outcome = inactive
WDR82 (GeneID 80335) #2 — G2 robust z-score = 0.631; G2 cells, % of GMNN control = 7.41; outcome = inactive
WDR82 (GeneID 80335) #3 — G2 robust z-score = -0.822; G2 cells, % of GMNN control = -2.82; outcome = inactive

Active calls (from the list above):
TPI1 (GeneID 7167) #3 — G2 robust z-score = 5.07; G2 cells, % of GMNN control = 38.6; outcome = active
